Article PMC10046310
No constants are given. Whether binding was seen depends on the method and setting. Binding seen in cells or lysates may run through a third protein. Here binding means that the protein was enriched with, or labelled near, the bait; the list need not be complete. A no says only that the protein was not detected with the bait.

By UniProt entry, the sequences of proteins in these tests, tags left out.
UniProt Q9WS38: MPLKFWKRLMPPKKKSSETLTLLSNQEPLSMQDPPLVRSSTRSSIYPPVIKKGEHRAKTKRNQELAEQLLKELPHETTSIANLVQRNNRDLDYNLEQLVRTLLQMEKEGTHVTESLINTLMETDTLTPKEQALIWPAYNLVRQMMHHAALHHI
UniProt Q8WUM4: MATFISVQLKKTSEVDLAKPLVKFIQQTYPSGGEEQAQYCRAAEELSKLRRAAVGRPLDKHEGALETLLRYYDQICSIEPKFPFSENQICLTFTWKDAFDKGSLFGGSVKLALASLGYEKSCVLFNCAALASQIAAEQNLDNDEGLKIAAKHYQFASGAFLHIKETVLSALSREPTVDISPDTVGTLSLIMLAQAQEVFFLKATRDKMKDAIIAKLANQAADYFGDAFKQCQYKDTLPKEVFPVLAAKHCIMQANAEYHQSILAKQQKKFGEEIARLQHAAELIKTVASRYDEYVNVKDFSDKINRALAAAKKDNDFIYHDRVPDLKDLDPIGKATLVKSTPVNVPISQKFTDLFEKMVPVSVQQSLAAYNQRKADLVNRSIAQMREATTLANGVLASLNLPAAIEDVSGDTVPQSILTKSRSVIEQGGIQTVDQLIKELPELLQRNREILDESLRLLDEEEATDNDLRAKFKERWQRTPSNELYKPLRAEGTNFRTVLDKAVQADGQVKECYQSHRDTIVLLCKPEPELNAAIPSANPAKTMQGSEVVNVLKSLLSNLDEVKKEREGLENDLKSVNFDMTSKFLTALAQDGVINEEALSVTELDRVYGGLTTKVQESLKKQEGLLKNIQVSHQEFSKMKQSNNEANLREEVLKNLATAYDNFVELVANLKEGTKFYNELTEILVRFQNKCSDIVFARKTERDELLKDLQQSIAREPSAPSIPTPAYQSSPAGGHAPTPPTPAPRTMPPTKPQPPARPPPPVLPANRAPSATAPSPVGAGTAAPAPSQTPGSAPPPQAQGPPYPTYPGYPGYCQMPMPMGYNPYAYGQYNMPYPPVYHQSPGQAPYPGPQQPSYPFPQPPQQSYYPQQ

Molecular target: TupV C protein fused to a tandem affinity purification (TAP) tag (Tupaia paramyxovirus) (UniProt Q9WS38)
Test: affinity purification with mass spectrometry

Substance: human protein Alix (from UniProt Q8WUM4 1-868)
- binding: no binding
